Measured values as given in paper PMC6028986.
Results are given in words; binding and its absence hold for the method and conditions named. In cells and extracts the contact can be indirect. Some results given as binding are weak or reduced against the parent protein; the word gives no strength. Sequences can lack the tags named with a protein.

Sequences of proteins named here, by UniProt entry; tags and fusion partners are left off.
UniProt Q9Y6G5: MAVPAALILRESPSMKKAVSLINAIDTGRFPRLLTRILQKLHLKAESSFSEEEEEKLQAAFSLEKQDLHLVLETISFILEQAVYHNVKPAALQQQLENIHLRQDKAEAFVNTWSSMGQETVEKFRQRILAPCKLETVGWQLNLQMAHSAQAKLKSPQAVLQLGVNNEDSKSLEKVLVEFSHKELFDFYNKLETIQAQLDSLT

Biological target: GST-COMMD10 (UniProt Q9Y6G5)
Assay: pull-down; approximately 50 μg of GST or GST fusion protein on glutathione-agarose beads incubated 3 h at 4°C with lysate of transfected COS7 cells (TBS: 10 mM Tris pH 8.0, 150 mM NaCl, 1% Triton X-100, protease inhibitors; pre-cleared with GST alone); four washes in lysis buffer; anti-HA Western blot; only the target purified

Row | binding | Binder
1 | binds | γ-HA ENaC (protein, UniProt P51170 1-649) MAPGEKIKAKIKKNLPVTGPQAPTIKELMRWYCLNTNTHGCRRIVVSRGRLRRLLWIGFTLTAVALILWQCALLVFSFYTVSVSIKVHFRKLDFPAVTICNINPYKYSTVRHLLADLEQETREALKSLYGFPESRKRREAESWNSVSEGKQPRFSHRIPLLIFDQDEKGKARDFFTGRKRKVGGSIIHKASNVMHIESKQVVGFQLCSNDTSDCATYTFSSGINAIQEWYKLHYMNIMAQVPLEKKINMSYSAEELLVTCFFDGVSCDARNFTLFHHPMHGNCYTFNNRENETILSTSMGGSEYGLQVILYINEEEYNPFLVSSTGAKVIIHRQDEYPFVEDVGTEIETAMVTSIGMHLTESFKLSEPYSQCTEDGSDVPIRNIYNAAYSLQICLHSCFQTKMVEKCGCAQYSQPLPPAANYCNYQQHPNWMYCYYQLHRAFVQEELGCQSVCKEACSFKEWTLTTSLAQWPSVVSEKWLLPVLTWDQGRQVNKKLNKTDLAKLLIFYKDLNQRSIMESPANSIEMLLSNFGGQLGLWMSCSVVCVIEIIEVFFIDFFSIIARRQWQKAKEWWAWKQAPPCPEAPRSPQGQDNPALDIDDDLPTFNSALHLPPALGTQVPGTPPPKYNTLRLERAFSNQLTDTQMLDEL
2 | binds | β-HA ENaC (protein, UniProt P51168 1-640) MHVKKYLLKGLHRLQKGPGYTYKELLVWYCDNTNTHGPKRIICEGPKKKAMWFLLTLLFAALVCWQWGIFIRTYLSWEVSVSLSVGFKTMDFPAVTICNASPFKYSKIKHLLKDLDELMEAVLERILAPELSHANATRNLNFSIWNHTPLVLIDERNPHHPMVLDLFGDNHNGLTSSSASEKICNAHGCKMAMRLCSLNRTQCTFRNFTSATQALTEWYILQATNIFAQVPQQELVEMSYPGEQMILACLFGAEPCNYRNFTSIFYPHYGNCYIFNWGMTEKALPSANPGTEFGLKLILDIGQEDYVPFLASTAGVRLMLHEQRSYPFIRDEGIYAMSGTETSIGVLVDKLQRMGEPYSPCTVNGSEVPVQNFYSDYNTTYSIQACLRSCFQDHMIRNCNCGHYLYPLPRGEKYCNNRDFPDWAHCYSDLQMSVAQRETCIGMCKESCNDTQYKMTISMADWPSEASEDWIFHVLSQERDQSTNITLSRKGIVKLNIYFQEFNYRTIEESAANNIVWLLSNLGGQFGFWMGGSVLCLIEFGEIIIDFVWITIIKLVALAKSLRQRRAQASYAGPPPTVAELVEAHTNFGFQPDTAPRSPNTGPYPSEQALPIPGTPPPNYDSLRLQPLDVIESDSEGDAI
3 | binds | α-HA ENaC (protein, UniProt P37088 1-669) MEGNKLEEQDSSPPQSTPGLMKGNKREEQGLGPEPAAPQQPTAEEEALIEFHRSYRELFEFFCNNTTIHGAIRLVCSQHNRMKTAFWAVLWLCTFGMMYWQFGLLFGEYFSYPVSLNINLNSDKLVFPAVTICTLNPYRYPEIKEELEELDRITEQTLFDLYKYSSFTTLVAGSRSRRDLRGTLPHPLQRLRVPPPPHGARRARSVASSLRDNNPQVDWKDWKIGFQLCNQNKSDCFYQTYSSGVDAVREWYRFHYINILSRLPETLPSLEEDTLGNFIFACRFNQVSCNQANYSHFHHPMYGNCYTFNDKNNSNLWMSSMPGINNGLSLMLRAEQNDFIPLLSTVTGARVMVHGQDEPAFMDDGGFNLRPGVETSISMRKETLDRLGGDYGDCTKNGSDVPVENLYPSKYTQQVCIHSCFQESMIKECGCAYIFYPRPQNVEYCDYRKHSSWGYCYYKLQVDFSSDHLGCFTKCRKPCSVTSYQLSAGYSRWPSVTSQEWVFQMLSRQNNYTVNNKRNGVAKVNIFFKELNYKTNSESPSVTMVTLLSNLGSQWSLWFGSSVLSVVEMAELVFDLLVIMFLMLLRRFRSRYWSPGRGGRGAQEVASTLASSPPSHFCPHPMSLSLSQPGPAPSPALTAPPPAYATLGPRPSPGGSAGASSSTCPLGGP
